# Assay results from PMC5297841.
# The chains behind the UniProt entries cited, without tags or fusion partners. Residues count along the entry.
# UniProt P35613, residues 346-385: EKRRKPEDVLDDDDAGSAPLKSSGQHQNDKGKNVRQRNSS
# No constants are given. Whether binding was seen depends on the method and setting. In cells and extracts the contact can be indirect. A yes stands for co-enrichment or nearness to the bait. Other partners may have been found.
# Biological target: GST-CD147-ICD (human) (UniProt P35613)
# Test: affinity purification with mass spectrometry; 20 ug GST-CD147-ICD or GST pre-bound to coupling resin (ProFound Mammalian co-IP Kit); lysate of 1 x 10^7 cells (cell line not given); four washes with IP Lysis/Wash Buffer; eluate digested with trypsin, LTQ-Orbitrap; only the target purified
substance,measurement,value
FBXO22 (from UniProt Q8NEZ5-1 1-403),binding,binds
